Values from PubChem BioAssay AID652248 (Drosophila RNAi Screening Center, 2013)
The deposit covers 863 reagents; shown is an unselected part. In the full data, 32 (3.7%) were called active. 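Calls also used reproducibility and a similarity ranking whose scores are not deposited; many active genes show only modest elongated scores.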 Names joined by + are all predicted targets of the reagent. Not all columns of the deposit are shown. Reagent sequences are not shown. The record does not give: the amount of reagent, the time to read-out.

- Screen: 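Genes that govern switching among distinct shape types in fly blood cells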 (primary screen)
- System: cultured Drosophila hemocytes
- Knock-down reagent: long dsRNA against Drosophila genes
- Measured: 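Automated microscopy of stained actin, tubulin and nuclei; single-cell shape measures assigned to five reference shape types, giving a score per dsRNA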
- Scale: elongated score: higher = more elongated bipolar cells; normal round score: higher = more normal rounded cells
- Rule for the call: 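a gene counts as active when its knock-down clearly increases the elongated score; a low similarity score was then used to rank the actives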

CG12147 [DRSC12192] → elongated score, rep 1: -0.53; normal round score, rep 1: 1.17; call: inactive
CG12147 [DRSC30029] → elongated score, rep 1: 2.69; normal round score, rep 1: -1.2; call: inactive
Btk [DRSC02008] → elongated score, rep 1: -0.39; normal round score, rep 1: -0.57; call: inactive
Btk [DRSC02666] → elongated score, rep 1: 0.13; normal round score, rep 1: 0.83; call: inactive
Btk [DRSC22427] → elongated score, rep 1: 1.02; normal round score, rep 1: -4.32; call: inactive
dco [DRSC16929] → elongated score, rep 1: 0.36; normal round score, rep 1: -0.04; call: inactive
dco [DRSC29211] → elongated score, rep 1: 2.57; normal round score, rep 1: -1.77; call: inactive
AMPKalpha [DRSC18714] → elongated score, rep 1: 0.66; elongated score, rep 2: 0.31; normal round score, rep 1: -0.99; call: inactive
AMPKalpha [DRSC28055] → elongated score, rep 1: -0.53; normal round score, rep 1: -2.77; call: inactive
CG7115 [DRSC02000] → elongated score, rep 1: -0.36; normal round score, rep 1: 0.79; call: inactive
CG7115 [DRSC29878] → elongated score, rep 1: 1.99; normal round score, rep 1: -0.95; call: inactive
Cdc2rk [DRSC07590] → elongated score, rep 1: -0.26; normal round score, rep 1: 0.57; call: inactive
Cdc2rk [DRSC29758] → elongated score, rep 1: 5.13; normal round score, rep 1: -2.51; call: active
Taf1 [DRSC12607] → elongated score, rep 1: -0.28; normal round score, rep 1: -1.58; call: inactive
Taf1 [DRSC29806] → elongated score, rep 1: 0.81; normal round score, rep 1: -0.38; call: inactive

Continued, starting with the last 5 of the part before.
CG7115 [DRSC29878] → elongated score, rep 1: 1.99; normal round score, rep 1: -0.95; call: inactive
Cdc2rk [DRSC07590] → elongated score, rep 1: -0.26; normal round score, rep 1: 0.57; call: inactive
Cdc2rk [DRSC29758] → elongated score, rep 1: 5.13; normal round score, rep 1: -2.51; call: active
Taf1 [DRSC12607] → elongated score, rep 1: -0.28; normal round score, rep 1: -1.58; call: inactive
Taf1 [DRSC29806] → elongated score, rep 1: 0.81; normal round score, rep 1: -0.38; call: inactive
PPP4R2r [DRSC18695] → elongated score, rep 1: 1.41; elongated score, rep 2: -0.31; normal round score, rep 1: -1.04; call: inactive
PPP4R2r [DRSC21503] → elongated score, rep 1: 1; normal round score, rep 1: -1.36; call: inactive
PPP4R2r [DRSC27825] → elongated score, rep 1: 1.18; normal round score, rep 1: -2.16; call: inactive
fray [DRSC16950] → elongated score, rep 1: -0.03; normal round score, rep 1: -0.39; call: inactive
Pp1alpha-96A [DRSC16795] → elongated score, rep 1: -0.53; normal round score, rep 1: -0.14; call: inactive
Pp1alpha-96A [DRSC23320] → elongated score, rep 1: 0.68; normal round score, rep 1: -3.41; call: inactive
Pp1alpha-96A [DRSC25667] → elongated score, rep 1: -0.53; normal round score, rep 1: -1.2; call: inactive
wdb [DRSC14163] → elongated score, rep 1: 1.32; normal round score, rep 1: -0.7; call: inactive
l(2)k01209 [DRSC06889] → elongated score, rep 1: 0.14; normal round score, rep 1: -0.3; call: inactive
l(2)k01209 [DRSC29673] → elongated score, rep 1: 1.11; normal round score, rep 1: -0.11; call: inactive
stg [DRSC17071] → elongated score, rep 1: -0.08; normal round score, rep 1: -0.35; call: inactive
stg [DRSC27238] → elongated score, rep 1: 0.32; normal round score, rep 1: -0.04; call: inactive
CG10417 [DRSC04846] → elongated score, rep 1: -0.16; normal round score, rep 1: -0.16; call: inactive
CG10417 [DRSC27173] → elongated score, rep 1: 0.82; normal round score, rep 1: -2.39; call: inactive
fab1 + CG33981 [DRSC07412] → elongated score, rep 1: -0.39; normal round score, rep 1: -0.53; call: inactive
fab1 + CG33981 [DRSC28045] → elongated score, rep 1: -0.53; normal round score, rep 1: -0.22; call: inactive
Mipp1 [DRSC11223] → elongated score, rep 1: 0.32; normal round score, rep 1: 0.16; call: inactive
cert [DRSC09674] → elongated score, rep 1: 0.54; normal round score, rep 1: -0.63; call: inactive
mTor [DRSC02811] → elongated score, rep 1: 0.35; normal round score, rep 1: -0.46; call: inactive
Sbf [DRSC16852] → elongated score, rep 1: 0.39; normal round score, rep 1: -1.2; call: inactive
Sbf [DRSC27418] → elongated score, rep 1: 0.36; normal round score, rep 1: -0.81; call: inactive
